Binding data for one molecule are collected here from patent US20260148804A1 (NANJING GENSCRIPT BIOTECH, published 2026).

The chains behind the UniProt entries cited, without tags or fusion partners. Where a name states a change or a piece, a line headed by the entry shows the natural chain unless it says otherwise.
UniProt Q07011: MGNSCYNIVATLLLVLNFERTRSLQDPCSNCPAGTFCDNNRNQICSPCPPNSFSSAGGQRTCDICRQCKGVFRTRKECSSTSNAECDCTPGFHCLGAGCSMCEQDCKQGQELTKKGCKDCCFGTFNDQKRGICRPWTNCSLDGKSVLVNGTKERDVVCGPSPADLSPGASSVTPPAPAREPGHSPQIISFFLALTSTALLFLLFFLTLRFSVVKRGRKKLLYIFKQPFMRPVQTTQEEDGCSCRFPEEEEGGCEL

This assay has as its target recombinant TNFRSF9 protein (Homo sapiens (Human)) (UniProt Q07011). Nature of the assay: indirect ELISA, plate coated with 0.5 ug/ml recombinant TNFRSF9 protein, OD450 against Log (ng/ml) of antibody.

These are yes or no findings as the source states them, for the method shown. Some results given as binding are weak or reduced against the parent protein; the word gives no strength.

B1: 81E11WTH (antibody, V domains shown)
VH: QSVKESEGGLFKPTDTLTLACTVSGFSLSYNAITWVRQAPGNGLEWIGVINYDGTTVYASWAKSRSTITRNTNLNTVTLKMTSLTAADTATYFCARNFNIWGPGTLVTVSS
VL: AAVLTQTPSPVSVTVGGTVTINCQASQSVDNNNYLAWFQQKPGQPPKQLIYSASTLASGVSSRFKGSGSGTQFTLTISGVQCDDAATYYCLGEFSASSGDWNAFGGGTEVVVK
notes: also called control 81E11WTH
Regarding B1, the binding entry is “binds”.
